The subject of this series is MBP-BES1 (Arabidopsis thaliana). In words: EMSA. As to conditions: EMSA: 25 mM HEPES-KOH pH 8.0, 50 mM KCl, 1 mM DTT, 10% glycerol, 20 ul, at least 30 min on ice, about 1 ng probe, 5% native PAGE in TBE, recombinant protein. In general terms: Mobility shift assays separate free from complexed probe on a gel.

The results in this text go back to article PMC7360063, “Brassinosteroids regulate root meristem development by mediating BIN2-UPB1 module in Arabidopsis” (PLoS Genetics, 2020).

The exact form of at least one protein or probe is not confirmed. Negatives hold for the conditions tested. At least one verdict was read from the data and is not stated in words by the source.

For “AGTGATGATAATCATGTGAGTGCATGTGCATCGAGTTGTA (double strand) [UPB1 promoter E5/E6 probe]”, the binding result (label: biotin (Fig 6 legend), Methods say 32P) is on record as “binds”.

With “AGTGATGATAATCATGTGAGTGTCTGGACATCGAGTTGTA (double strand) [UPB1 promoter E5/mE6 probe]”, the binding result (label: biotin or unlabeled) is recorded as “no binding”.

As for “AGTGATGATAATTCTGGAAGTGTCTGGACATCGAGTTGTA (double strand) [UPB1 promoter mE5/mE6 probe]”, the binding result (label: biotin or unlabeled) is given as “no binding”.
